Measurements reported in patent publication US11236059B2 (HELMHOLTZ-ZENTRUM FUER INFEKTIONSFORSCHUNG GMBH, priority 2017, dated 2022).

Assay: general procedure: Fmoc solid-phase peptide synthesis; Rapp 2-chlorotrityl resin; Rapp S RAM resin (0.8 mmol/g); HATU/HOAt/NMM; TBTU/DiPEA
Conditions: conjugation step

Question: Which conjugation yield does the source give for “((5aR,6S,6aS)-1-((3S,6S,9S,12S,15R)-3-((1H-imidazol-4-yl)methyl)-6-((1H-indol-3-yl)methyl)-15-(((S)-1-(((S)-1—((S)-2-(2-carbamoylhydrazine-1-carbonyl)pyrrolidin-1-yl)-5-guanidino-1-oxopentan-2-yl)amino)-4-methyl-1-oxopentan-2-yl)carbamoyl)-12-(4-hydroxybenzyl)-9-(hydroxymethyl)-1,4,7,10,13-pentaoxo-1-((S)-5-oxopyrrolidin-2-yl)-2,5,8,11,14-pentaazaoctadecan-18-yl)-1,4,5,5a,6,6a,7,8-octahydrocyclopropa[5,6]cycloocta[1,2-d][1,2,3]triazol-6-yl)methyl (2-(2-(2-(3′,6′-dihydroxy-3-oxo-3H-spiro[isobenzofuran-1,9′-xanthene]-5-carboxamido)ethoxy)ethoxy)ethyl)carbamate” here?
Answer: 70%

Question: For “((5aR,6S,6aS)-1-((3S,6S,9S,12S,15R)-3-((1H-imidazol-4-yl)methyl)-6-((1H-indol-3-yl)methyl)-15-(((S)-1-(((S)-1—((S)-2-((2-amino-2-oxoethyl)carbamoyl)pyrrolidin-1-yl)-5-guanidino-1-oxopentan-2-yl)amino)-4-methyl-1-oxopentan-2-yl)carbamoyl)-12-(4-hydroxybenzyl)-9-(hydroxymethyl)-1,4,7,10,13-pentaoxo-1-((S)-5-oxopyrrolidin-2-yl)-2,5,8,11,14-pentaazaoctadecan-18-yl)-1,4,5,5a,6,6a,7,8-octahydrocyclopropa[5,6]cycloocta[1,2-d][1,2,3]triazol-6-yl)methyl (2-(2-(2-(3′,6′-dihydroxy-3-oxo-3H-spiro[isobenzofuran-1,9′-xanthene]-5-carboxamido)ethoxy)ethoxy)ethyl)carbamate”, which conjugation yield is on record?
Answer: 69%

Question: For “((S)-2-((R)-2-((R)-2-((R)-2-((S)-4-(4-(((2-amino-4-hydroxypteridin-6-yl)methyl)amino)benzamido)-4-carboxybutanamido)-3-carboxypropanamido)-3-carboxypropanamido)-3-carboxypropanamido)-5-(4-(2-(((2-(3-(3′,6′-dihydroxy-3-oxo-3H-spiro[isobenzofuran-1,9′-xanthen]-5-yl)thioureido)ethyl)carbamoyl)oxy)ethyl)-1H-1,2,3-triazol-1-yl)pentanoyl)-D-aspartyl-D-aspartyl-D-lysine”, which conjugation yield is on record?
Answer: 57%

Question: Which conjugation yield does the source give for L-Orn-LHRH—CF here?
Answer: 60%

Question: With “N^2-(4-(((2-amino-4-hydroxypteridin-6-yl)methyl)amino)benzoyl)-N^5—((S)-1-(((S)-1-(((S)-1-(((S)-6-(4-azidobenzamido)-1-methoxy-1-oxohexan-2-yl)amino)-3-carboxy-1-oxopropan-2-yl)amino)-3-carboxy-1-oxopropan-2-yl)amino)-3-carboxy-1-oxopropan-2-yl)-L-glutamine” as the substance, how does the conjugation yield read?
Answer: 32%

Question: Which conjugation yield does the source give for “N^2-N^2—((S)-4-(4-(((2-amino-4-hydroxypteridin-6-yl)methyl)amino)benzamido)-4-carboxybutanoyl)-D-aspartyl-D-aspartyl-N^6-(4-(2-(4-(2-(((2-(3-(3′,6′-dihydroxy-3-oxo-3H-spiro[isobenzofuran-1,9′-xanthen]-5-yl)thioureido)ethyl)carbamoyl)oxy)ethyl)-1H-1,2,3-triazol-1-yl))benzoyl)-L-lysyl-L-aspartyl-L-aspartyl-N^6-(4-fluorobenzoyl)-L-lysine” here?
Answer: 27%

Question: Which conjugation yield does the source give for “N^2—((S)-4-(4-(((2-amino-4-hydroxypteridin-6-yl)methyl)amino)benzamido)-4-carboxybutanoyl)-L-aspartyl-L-aspartyl-L-aspartyl-N^6 (4-((5aR,6S,6aS)-6-((((2-(3-(3′,6′-dihydroxy-3-oxo-3H-spiro[isobenzofuran-1,9′-xanthen]-5-yl)thioureido)ethyl)carbamoyl)oxy)methyl)-5,5a,6,6a,7,8-hexahydrocyclopropa[5,6]cycloocta[1,2-d][1,2,3]triazol-1 (4H)-yl)benzoyl)-L-lysine” here?
Answer: 30%

Same assay, conditions: coupling step

Question: With “(7S,10S,13S,16S)-16-((((9H-fluoren-9-yl)methoxy)carbonyl)amino)-1-(4-azidophenyl)-10,13-bis(carboxymethyl)-7-(methoxycarbonyl)-1,9,12,15-tetraoxo-2,8,11,14-tetraazaoctadecan-18-oic acid” as the substance, how does the step yield read?
Answer: 52%
